Part of at least one peptide drawing is inferred or uncertain, most often the ends. Ends that are not written are not given here.
Key:
PC12 cells = assay: Acetylcholinesterase activity assay (AChE release from PC12 cells, Ellman reagent); format: cell-based; details: toxic peptide alone; compared to untreated control
Procedure: AChE activity was measured using the Ellman reagent that measures the presence of thiol groups as a result of AChE activity. Cells were plated the day before the experiment as for the cell viability assay. […] The Ellman reagent was prepared as a mixture of the 3 solutions in a ratio 33(A):3(B):4(C). Absorbance measurements were taken at regular intervals (3, 10, 30 and 60 mins) across experiments at 405 nm.

Protein sequences, listed by entry. Tags and fused reporters are not part of them. Residues count along the entry.
UniProt P36544, 23-502: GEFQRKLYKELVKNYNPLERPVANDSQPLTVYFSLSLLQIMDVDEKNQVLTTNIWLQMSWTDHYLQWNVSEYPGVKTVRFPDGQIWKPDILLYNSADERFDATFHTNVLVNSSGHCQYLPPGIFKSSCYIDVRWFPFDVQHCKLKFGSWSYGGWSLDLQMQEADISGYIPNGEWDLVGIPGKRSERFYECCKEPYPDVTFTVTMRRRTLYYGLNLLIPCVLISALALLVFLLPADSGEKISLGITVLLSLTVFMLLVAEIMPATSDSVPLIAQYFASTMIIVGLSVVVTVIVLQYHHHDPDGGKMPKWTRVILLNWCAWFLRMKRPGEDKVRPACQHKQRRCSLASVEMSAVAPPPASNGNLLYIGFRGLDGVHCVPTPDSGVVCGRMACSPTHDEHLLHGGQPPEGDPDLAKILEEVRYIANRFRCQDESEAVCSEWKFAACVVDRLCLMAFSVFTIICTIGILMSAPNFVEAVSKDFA

basal forebrain = assay: VSDI of evoked responses in basal forebrain brain slices; design: species or system rat; details: T30 2 μM perfusion; example experiments, increase or decrease
Procedure: Coronal rat brain slices were prepared according to the procedure described in (Badin et al., 2013) but this time containing basal forebrain (+0.70 and −0.26 millimetres (mm) from bregma (Paxinos and Watson, 1998). Optical imaging using voltage-sensitive dyes was then performed as previously described (Badin et al., 2013, Neuropharmacology. 73C:10-18).
VSDI data were recorded in 4×4 mm 2-dimensional images, equivalent to 100×100 pixels—each pixel being 40×40 micrometres (μm), from which critical data were extracted. VSDI data was not gathered throughout the experimental run, but in fact was recorded in discrete periods of time 15 minutes in length. The inter-stimulus interval (ISI) between stimulations was 28 seconds and therefore, every recording epoch consisted of 32 successive stimulations. The data from all 32 stimulations were then averaged into a single file for each experimental condition and analysed using a VSDI data analysis toolbox specially made for MatLab (Bourgeois et al., 2014, PLoS One. 9:e108686). […] In order to quantify VSDI data however, the area under the curve was calculated (summed fluorescence fractional change, FIG. 11-22) between the moment of stimulation (t=0) and 280 ms after that; this method of quantification takes into account all the components of the immediate and longer-latency response. […]

α7 nicotinic-receptor = α7 nicotinic-receptor (Homo sapiens, UniProt P36544); details: cited from earlier work

KAEFHRWSSYMVHWKNQFDHYSKQDRCSDL [T30, reference compound]
% AChE release (PC12 cells): 169.45%
change in network activity (summed long-latency activity) from baseline level (basal forebrain): ≥ 50%
affinity for the α7 nicotinic-receptor (α7 nicotinic-receptor): 5 nM

From patent US10729749B2, “Neurodegenerative disorders” (priority 2014, dated 2020)
